Reference: paper PMC1866352
These are yes or no findings as the source states them, for the method shown. In cells and extracts the contact can be indirect. Some binding calls cover weakened binding; strength is not graded here.

Sequences of proteins named here, by UniProt entry; tags and fusion partners are left off. Residues count along the entry.
UniProt P42859: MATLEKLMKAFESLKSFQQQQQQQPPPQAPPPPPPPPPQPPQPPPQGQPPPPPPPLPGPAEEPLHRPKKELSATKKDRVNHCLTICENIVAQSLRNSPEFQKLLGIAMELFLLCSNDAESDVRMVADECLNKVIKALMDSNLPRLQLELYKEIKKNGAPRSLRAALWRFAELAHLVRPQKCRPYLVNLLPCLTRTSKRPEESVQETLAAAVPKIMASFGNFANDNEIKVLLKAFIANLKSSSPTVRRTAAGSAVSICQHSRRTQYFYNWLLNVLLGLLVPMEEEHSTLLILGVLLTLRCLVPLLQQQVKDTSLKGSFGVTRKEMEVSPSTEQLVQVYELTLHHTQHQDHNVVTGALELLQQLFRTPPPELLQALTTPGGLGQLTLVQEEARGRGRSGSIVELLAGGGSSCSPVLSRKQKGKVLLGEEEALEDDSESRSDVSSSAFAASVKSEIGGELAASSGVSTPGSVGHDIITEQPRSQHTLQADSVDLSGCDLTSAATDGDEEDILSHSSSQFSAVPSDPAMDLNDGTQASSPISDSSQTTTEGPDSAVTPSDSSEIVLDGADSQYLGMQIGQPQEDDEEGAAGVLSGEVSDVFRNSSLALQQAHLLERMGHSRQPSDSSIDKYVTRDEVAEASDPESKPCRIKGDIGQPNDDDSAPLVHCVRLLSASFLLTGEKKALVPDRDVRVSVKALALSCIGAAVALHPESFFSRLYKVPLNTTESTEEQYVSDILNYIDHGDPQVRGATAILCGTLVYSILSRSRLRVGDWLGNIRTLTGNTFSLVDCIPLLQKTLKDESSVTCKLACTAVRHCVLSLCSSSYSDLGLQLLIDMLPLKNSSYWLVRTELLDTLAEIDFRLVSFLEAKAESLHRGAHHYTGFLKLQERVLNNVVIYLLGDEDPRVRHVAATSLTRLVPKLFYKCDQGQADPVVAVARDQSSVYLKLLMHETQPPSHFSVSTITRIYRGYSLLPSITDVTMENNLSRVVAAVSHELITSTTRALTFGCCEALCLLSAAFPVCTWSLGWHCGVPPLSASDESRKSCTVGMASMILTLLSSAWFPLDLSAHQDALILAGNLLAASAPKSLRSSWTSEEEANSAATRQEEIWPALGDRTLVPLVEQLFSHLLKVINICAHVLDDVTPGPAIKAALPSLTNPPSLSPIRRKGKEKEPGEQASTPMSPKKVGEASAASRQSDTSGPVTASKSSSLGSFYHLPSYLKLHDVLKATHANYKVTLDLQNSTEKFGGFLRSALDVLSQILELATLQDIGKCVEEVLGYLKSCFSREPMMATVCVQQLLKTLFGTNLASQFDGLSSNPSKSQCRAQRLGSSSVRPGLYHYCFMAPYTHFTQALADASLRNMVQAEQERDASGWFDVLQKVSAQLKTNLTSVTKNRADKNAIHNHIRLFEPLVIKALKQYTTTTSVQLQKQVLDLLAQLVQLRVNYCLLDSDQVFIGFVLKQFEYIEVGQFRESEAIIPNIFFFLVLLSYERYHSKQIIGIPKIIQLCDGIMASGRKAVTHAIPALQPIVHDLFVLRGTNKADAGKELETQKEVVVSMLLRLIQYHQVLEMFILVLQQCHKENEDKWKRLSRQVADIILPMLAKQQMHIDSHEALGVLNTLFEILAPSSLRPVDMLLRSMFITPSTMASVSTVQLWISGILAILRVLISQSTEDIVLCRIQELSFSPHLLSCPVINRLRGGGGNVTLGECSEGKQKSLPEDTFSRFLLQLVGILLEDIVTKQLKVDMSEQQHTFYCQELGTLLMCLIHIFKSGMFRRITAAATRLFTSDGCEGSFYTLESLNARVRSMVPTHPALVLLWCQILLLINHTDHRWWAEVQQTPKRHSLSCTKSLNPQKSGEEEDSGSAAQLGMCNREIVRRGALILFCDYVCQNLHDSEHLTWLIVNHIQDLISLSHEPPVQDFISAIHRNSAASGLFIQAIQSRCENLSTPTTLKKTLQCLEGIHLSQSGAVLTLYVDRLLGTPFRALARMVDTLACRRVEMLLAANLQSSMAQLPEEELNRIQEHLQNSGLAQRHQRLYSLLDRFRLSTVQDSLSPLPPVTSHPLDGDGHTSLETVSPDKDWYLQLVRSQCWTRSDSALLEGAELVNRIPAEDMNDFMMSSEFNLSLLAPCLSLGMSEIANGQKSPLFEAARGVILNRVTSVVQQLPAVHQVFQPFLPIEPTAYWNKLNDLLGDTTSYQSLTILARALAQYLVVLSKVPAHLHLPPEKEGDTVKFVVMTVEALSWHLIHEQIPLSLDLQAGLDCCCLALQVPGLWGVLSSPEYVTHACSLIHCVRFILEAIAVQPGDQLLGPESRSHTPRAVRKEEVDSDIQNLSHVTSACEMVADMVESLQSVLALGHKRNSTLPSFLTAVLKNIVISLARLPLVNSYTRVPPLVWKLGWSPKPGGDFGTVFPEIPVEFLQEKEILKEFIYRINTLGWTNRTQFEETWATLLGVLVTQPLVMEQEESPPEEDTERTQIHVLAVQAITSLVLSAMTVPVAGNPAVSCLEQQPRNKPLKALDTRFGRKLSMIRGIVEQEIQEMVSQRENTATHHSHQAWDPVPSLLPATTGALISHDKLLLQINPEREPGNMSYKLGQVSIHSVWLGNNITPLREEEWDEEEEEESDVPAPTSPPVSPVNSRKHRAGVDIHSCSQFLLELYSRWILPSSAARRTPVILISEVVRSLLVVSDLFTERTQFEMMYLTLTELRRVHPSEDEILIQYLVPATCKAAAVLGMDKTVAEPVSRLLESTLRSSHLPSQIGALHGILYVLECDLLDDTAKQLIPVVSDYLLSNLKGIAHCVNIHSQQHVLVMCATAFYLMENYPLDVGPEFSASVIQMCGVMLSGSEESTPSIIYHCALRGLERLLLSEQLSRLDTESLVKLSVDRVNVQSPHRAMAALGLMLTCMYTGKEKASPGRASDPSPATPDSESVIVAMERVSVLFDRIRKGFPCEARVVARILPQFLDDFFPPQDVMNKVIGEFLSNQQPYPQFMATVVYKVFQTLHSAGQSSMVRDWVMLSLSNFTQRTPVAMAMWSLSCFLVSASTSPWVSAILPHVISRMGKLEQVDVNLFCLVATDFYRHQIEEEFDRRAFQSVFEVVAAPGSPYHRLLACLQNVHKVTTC
UniProt Q9D4H8: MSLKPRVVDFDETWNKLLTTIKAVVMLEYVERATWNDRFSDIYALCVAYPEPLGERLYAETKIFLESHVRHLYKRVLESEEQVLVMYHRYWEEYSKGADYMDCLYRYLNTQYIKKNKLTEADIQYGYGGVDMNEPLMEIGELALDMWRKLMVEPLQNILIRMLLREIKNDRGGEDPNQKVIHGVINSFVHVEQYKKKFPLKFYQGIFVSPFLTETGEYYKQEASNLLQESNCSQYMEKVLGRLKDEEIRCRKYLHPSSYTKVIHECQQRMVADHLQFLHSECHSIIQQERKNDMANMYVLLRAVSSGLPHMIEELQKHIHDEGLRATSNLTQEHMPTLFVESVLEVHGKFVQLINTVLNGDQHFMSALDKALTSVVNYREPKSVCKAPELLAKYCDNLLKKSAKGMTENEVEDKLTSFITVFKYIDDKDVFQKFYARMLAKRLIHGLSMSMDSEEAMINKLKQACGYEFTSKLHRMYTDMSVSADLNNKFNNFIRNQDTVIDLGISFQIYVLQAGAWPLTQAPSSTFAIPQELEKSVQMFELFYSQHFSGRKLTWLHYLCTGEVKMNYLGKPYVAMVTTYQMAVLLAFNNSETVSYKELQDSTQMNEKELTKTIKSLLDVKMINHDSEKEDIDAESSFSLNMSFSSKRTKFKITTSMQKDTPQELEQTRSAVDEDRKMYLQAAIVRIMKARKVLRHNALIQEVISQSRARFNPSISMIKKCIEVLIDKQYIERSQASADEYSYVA
UniProt P60879: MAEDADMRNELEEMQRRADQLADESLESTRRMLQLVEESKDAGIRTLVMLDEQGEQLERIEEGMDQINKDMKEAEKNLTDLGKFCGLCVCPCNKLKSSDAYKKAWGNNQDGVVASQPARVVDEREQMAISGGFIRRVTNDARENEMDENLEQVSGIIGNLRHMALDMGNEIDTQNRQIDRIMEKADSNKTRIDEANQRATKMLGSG
UniProt O08532, residues 25-1103: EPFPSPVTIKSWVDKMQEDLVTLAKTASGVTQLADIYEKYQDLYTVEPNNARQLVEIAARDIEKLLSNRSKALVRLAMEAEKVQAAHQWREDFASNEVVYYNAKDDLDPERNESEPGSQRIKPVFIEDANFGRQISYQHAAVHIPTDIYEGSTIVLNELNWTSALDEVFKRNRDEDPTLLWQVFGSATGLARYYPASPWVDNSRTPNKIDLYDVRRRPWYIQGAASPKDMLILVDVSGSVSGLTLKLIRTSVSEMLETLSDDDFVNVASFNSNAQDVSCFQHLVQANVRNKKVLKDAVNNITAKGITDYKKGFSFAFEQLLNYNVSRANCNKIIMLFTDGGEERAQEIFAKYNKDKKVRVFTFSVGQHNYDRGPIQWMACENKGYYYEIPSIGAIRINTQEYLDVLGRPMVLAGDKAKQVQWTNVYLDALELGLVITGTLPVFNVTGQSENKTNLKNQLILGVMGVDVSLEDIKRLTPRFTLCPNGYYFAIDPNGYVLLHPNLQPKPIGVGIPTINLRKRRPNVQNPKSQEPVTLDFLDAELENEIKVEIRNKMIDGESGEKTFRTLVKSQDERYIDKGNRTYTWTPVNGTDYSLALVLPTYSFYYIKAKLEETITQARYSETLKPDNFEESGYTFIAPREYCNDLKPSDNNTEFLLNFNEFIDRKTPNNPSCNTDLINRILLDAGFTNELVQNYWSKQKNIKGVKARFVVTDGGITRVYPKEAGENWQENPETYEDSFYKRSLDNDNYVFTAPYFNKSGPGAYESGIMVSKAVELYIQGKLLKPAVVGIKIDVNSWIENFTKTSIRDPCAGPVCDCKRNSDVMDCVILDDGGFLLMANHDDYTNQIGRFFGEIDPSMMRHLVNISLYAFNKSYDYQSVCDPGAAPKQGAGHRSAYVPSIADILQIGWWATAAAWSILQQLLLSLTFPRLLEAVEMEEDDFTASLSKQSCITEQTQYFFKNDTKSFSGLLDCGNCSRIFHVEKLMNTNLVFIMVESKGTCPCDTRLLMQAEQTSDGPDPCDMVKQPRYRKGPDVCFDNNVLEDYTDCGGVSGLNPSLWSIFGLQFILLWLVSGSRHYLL

Target: Htt (wild-type, from wild-type mouse brain) (mouse (endogenous in mouse brain)) (UniProt P42859)
Assay: co-IP; whole-brain lysates (500 ug, T-PER with protease inhibitors) of wild-type or YAC128 mice; monoclonal Htt antibody (Chemicon 2166) overnight at 4 °C, protein G; washed 5x with TBS/0.05% Tween; Western blots probed for the partners

binding, binds:
CUL2 (mouse brain) (from UniProt Q9D4H8 1-745)
SNAP25 (mouse brain) (from UniProt P60879 1-206)
USP9X (mouse brain) (from UniProt P70398 1-2559)
CACNA2D1 (mouse brain) (from UniProt O08532 25-1103)
